Test results taken from PubChem BioAssay AID248 (DTP/NCI, 2004).
The list does not hold the whole screen: it is rich in T/C values a quarter to a half above the control, in often repeated tests (any T/C) and in doses without a T/C. Further doses and runs are listed elsewhere. T/C is the treated group as % of the vehicle group. Some entries give survivors of the animals treated and no T/C: the source files T/C as zero there, which appears to mark a toxic dose or a test without result, not a measured value. Some doses without a T/C left all or most animals alive at the check, yet need not have been tolerated: survival well below the control is almost never listed, so the zero probably covers shortened survival too. Counts of survivors are from the toxicity check (mostly the fifth day) where no day follows; animals may have died later. Schedules are NCI's codes, taken here to give the interval after Q, in days (D) or hours (H), and the number of doses after X. Some schedules carry Z or #; the key to these is not given. Where survival is the endpoint, the PubChem record calls one and a half times the control and up active, and a quarter to a half above the control has no call in these data; cut-offs in other NCI protocols can differ.

Tested on: L1210 leukemia ip in BDF1 mice, survival T/C
Assay: NCI In Vivo Anticancer Drug Screen. Data for tumor model L1210 Leukemia (intraperitoneal) in B6D2F1 (BDF1) mice
Settings: T/C endpoint: mean survival time, higher T/C = longer survival
[1] = dose: 100.0 mg/kg/injection, schedule: Q01DX009 (ip), vehicle: saline with Tween-80
[2] = dose: 100.0 mg/kg/injection, schedule: Q04DX003 (ip), vehicle: saline
[3] = dose: 400.0 mg/kg/injection, schedule: Q01DX001 (ip), vehicle: saline
[4] = dose: 100.0 mg/kg/injection, schedule: Q04DX003 (ip), vehicle: Klucel (hydroxypropylcellulose) (HPC)
[5] = dose: 200.0 mg/kg/injection, schedule: Q04DX003 (ip), vehicle: Klucel (hydroxypropylcellulose) (HPC)
[6] = dose: 400.0 mg/kg/injection, schedule: Q04DX003 (ip), vehicle: Klucel (hydroxypropylcellulose) (HPC)
[7] = dose: 200.0 mg/kg/injection, schedule: Q01DX001 (ip), vehicle: saline
[8] = dose: 400.0 mg/kg/injection, schedule: Q04DX002 (ip), vehicle: Klucel (hydroxypropylcellulose) (HPC)
[9] = dose: 100.0 mg/kg/injection, schedule: Q01DX001 (ip), vehicle: saline
[10] = dose: 150.0 mg/kg/injection, schedule: Q01DX001 (ip), vehicle: saline
[11] = dose: 400.0 mg/kg/injection, schedule: Q04DX003 (ip), vehicle: saline
[12] = dose: 200.0 mg/kg/injection, schedule: Q04DX003 (ip), vehicle: saline

CC1=CC(=O)N(C2=CC(=O)C=CC2=O)/C1=C/C#N
survivor count (dose: 100.0 mg/kg/injection, schedule: Q01DX001 (ip), vehicle: Klucel (hydroxypropylcellulose) (HPC)): 1 of 6 | survivor count (dose: 200.0 mg/kg/injection, schedule: Q01DX001 (ip), vehicle: Klucel (hydroxypropylcellulose) (HPC)): 1 of 6

O=[N+]([O-])c1ccc(C(O)Nc2nccs2)o1 (stereo not drawn)
survivor count [1]: 3 of 6

CCN(CC)CCc1ccccn1
survivor count [2]: 2 of 6

CC(=O)c1ccc(S(=O)(=O)Cl)cc1
survivor count [3]: 2 of 4

O=C(C=C(C(F)(F)F)C(F)(F)F)c1ccc(C(=O)C=C(C(F)(F)F)C(F)(F)F)cc1
survivor count [1]: 4 of 6 | survivor count (dose: 200.0 mg/kg/injection, schedule: Q01DX009 (ip), vehicle: saline with Tween-80): 0 of 6

CCOC(=O)/C(C#N)=C/P(=O)(OCC)OCC
survivor count [4]: 6 of 6 | survivor count [5]: 6 of 6 | survivor count [6]: 6 of 6

C[n+]1ccc(/C=C/c2ccc(Cl)c(Cl)c2)cc1
survivor count (dose: 25.0 mg/kg/injection, schedule: Q04DX003 (ip), vehicle: Klucel (hydroxypropylcellulose) (HPC)): 1 of 6 | survivor count (dose: 50.0 mg/kg/injection, schedule: Q04DX003 (ip), vehicle: Klucel (hydroxypropylcellulose) (HPC)): 0 of 6 | survivor count [4]: 0 of 6 | survivor count [5]: 0 of 6 | survivor count [6]: 0 of 6

CCOC(=O)c1c[nH]c2cc(OC)ccc2c1=O
survivor count (dose: 400.0 mg/kg/injection, schedule: Q01DX009 (ip), vehicle: saline with Tween-80): 6 of 6

NC(N)=N/N=C/c1ccc(O)c(C(=O)O)c1
survivor count (dose: 125.0 mg/kg/injection, schedule: Q01DX Z (oral), vehicle: methylcellulose (MC)): 2 of 6 | survivor count (dose: 240.0 mg/kg/injection, schedule: Q01DX Z (oral), vehicle: methylcellulose (MC)): 5 of 6 | survivor count (dose: 250.0 mg/kg/injection, schedule: Q01DX Z (ip), vehicle: methylcellulose (MC)): 5 of 6 | survivor count (dose: 375.0 mg/kg/injection, schedule: Q01DX Z (ip), vehicle: methylcellulose (MC)): 1 of 6 | survivor count (dose: 500.0 mg/kg/injection, schedule: Q01DX Z (ip), vehicle: methylcellulose (MC)): 0 of 6 | survivor count (dose: 500.0 mg/kg/injection, schedule: Q01DX Z (oral), vehicle: methylcellulose (MC)): 0 of 6 | survivor count (dose: 1000.0 mg/kg/injection, schedule: Q01DX Z (oral), vehicle: methylcellulose (MC)): 0 of 6

COc1ccc2c3c1OC1C(O)C=CC4C(C2)N(C)CCC341 (stereo not drawn)
survivor count [7]: 3 of 6 | survivor count [3]: 0 of 6

O=C(Nc1ccccc1F)C(Cl)(Cl)Cl
survivor count [8]: 3 of 3

CCCOP(=S)(N1CC1)N1CC1
survivor count (dose: 5.0 mg/kg/injection, schedule: Q01DX015 (ip), vehicle: saline): 0 of 6 | survivor count (dose: 10.0 mg/kg/injection, schedule: Q01DX015 (ip), vehicle: saline): 0 of 6 | survivor count (dose: 20.0 mg/kg/injection, schedule: Q01DX015 (ip), vehicle: saline): 0 of 6 | survivor count (dose: 35.0 mg/kg/injection, schedule: Q01DX015 (ip), vehicle: saline): 0 of 6 | survivor count (dose: 50.0 mg/kg/injection, schedule: Q01DX001 (ip), vehicle: saline): 3 of 4 | T/C (dose: 66.0 mg/kg/injection, schedule: Q01DX001 (ip), vehicle: saline): 132 % of control | T/C [9]: 140 % of control | survivor count [9]: 1 of 4 | survivor count [10]: 1 of 4 | survivor count [7]: 2 of 4 | survivor count [3]: 2 of 4

CC(=O)OCCC/C(=C\c1ccccc1)[N+](=O)[O-]
survivor count [7]: 2 of 4 | survivor count [3]: 0 of 4

C[N+](C)(C)CCC[N+](C)(C)CCN1C(=O)c2cccc3cccc(c23)C1=O
survivor count [9]: 0 of 6 | survivor count [7]: 1 of 6

O=[N+]([O-])c1ccc(-c2cccc3ccccc23)c([N+](=O)[O-])c1
survivor count (dose: 200.0 mg/kg/injection, schedule: Q01DX001 (ip), vehicle: carboxymethylcellulose (CMC)): 4 of 4

Nc1nc(Br)cs1
survivor count [11]: 0 of 6

NCCC(=O)OC1CCCc2c(O)c3c(c(O)c21)C(=O)c1ccccc1C3=O (stereo not drawn)
survivor count (dose: 100.0 mg/kg/injection, schedule: Q01DX009 (ip), vehicle: saline): 5 of 6 | survivor count [12]: 5 of 6 | survivor count [11]: 5 of 6

O=C(C[n+]1c(Cl)ccc2ccccc21)c1ccccc1
survivor count (dose: 300.0 mg/kg/injection, schedule: Q01DX001 (ip), vehicle: other): 1 of 6

CC(C)N(C(C)C)S(C)(=O)=O
survivor count [12]: 6 of 6 | survivor count [11]: 3 of 6

CC1=C(Br)C(=O)C(Br)=C(Br)C1=O
survivor count (dose: 200.0 mg/kg/injection, schedule: Q04DX003 (ip), vehicle: acetone): 4 of 6 | survivor count (dose: 400.0 mg/kg/injection, schedule: Q04DX003 (ip), vehicle: acetone): 0 of 6

CC(C)C1C(C(=O)O)NC(=O)C1C(=O)O (stereo not drawn)
survivor count (dose: 50.0 mg/kg/injection, schedule: Q01DX009 (ip), vehicle: Klucel (hydroxypropylcellulose) (HPC)): 6 of 6 | survivor count [4]: 6 of 6 | survivor count [6]: 6 of 6

NC(CCl)=NCC1CCCCCC1
survivor count (dose: 100.0 mg/kg/injection, schedule: Q04DX002 (ip), vehicle: Klucel (hydroxypropylcellulose) (HPC)): 1 of 3 | survivor count (dose: 200.0 mg/kg/injection, schedule: Q04DX002 (ip), vehicle: Klucel (hydroxypropylcellulose) (HPC)): 0 of 3 | survivor count [8]: 0 of 3

CC(CN(C)C)CN1c2ccccc2Sc2ccccc21 (stereo not drawn)
T/C (dose: 25.0 mg/kg/injection, schedule: Q04DX003 (ip), vehicle: saline): 128 % of control | T/C (dose: 50.0 mg/kg/injection, schedule: Q04DX003 (ip), vehicle: saline with Tween-80): 136 % of control | survivor count (dose: 50.0 mg/kg/injection, schedule: Q04DX003 (ip), vehicle: saline): 4 of 6 | survivor count (dose: 100.0 mg/kg/injection, schedule: Q04DX003 (ip), vehicle: saline with Tween-80): 6 of 6 | survivor count [2]: 0 of 6 | survivor count (dose: 200.0 mg/kg/injection, schedule: Q04DX003 (ip), vehicle: saline with Tween-80): 3 of 6

CC[P+](C)(CC)c1ccccc1
survivor count (dose: 60.0 mg/kg/injection, schedule: Q01DX001 (ip), vehicle: saline): 1 of 6 | survivor count (dose: 75.0 mg/kg/injection, schedule: Q01DX001 (ip), vehicle: saline): 0 of 6 | survivor count [10]: 0 of 6 | survivor count (dose: 300.0 mg/kg/injection, schedule: Q01DX001 (ip), vehicle: saline): 0 of 6

COc1ccccc1NC(=O)NCCN1CCOCC1
survivor count (dose: 400.0 mg/kg/injection, schedule: Q01DX009 (ip), vehicle: Klucel (hydroxypropylcellulose) (HPC)): 3 of 6
